For at least one compound, name, drawing or mass did not settle the structure.
Tests used:
[1] = test system: GPMVs isolated from HeLa cells; assay: High-throughput screen of the Cayman bioactive lipid library for effects on GPMV phase behavior (% phase separated vesicles, NBD-DSPE phase preference); parameters: species or system human; details: final drug concentration 1 μM, RT, NBD-DSPE channel
Experimental: This approach is not practical for high throughput screening applications, which typically are performed at a single temperature. Changes in the percentage of phase-separated GPMVs were monitored at a single temperature in response to the addition of small molecules as a surrogate for measuring Tmisc directly (FIG. 1A). This approach requires that a significant fraction of GPMVs are phase separated under control conditions, such that experimentally-induced changes can be readily detected.
In phase separated vesicles these markers are enriched in their preferred domains, such that a given vesicle contains a co-existing NBD-DSPE-rich phase and a DiD-rich phase. In contrast, NBD-DSPE and DiD colocalize in a single uniform phase in GPMVs that are not phase separated. We also optimized conditions to isolate and plate GPMVs in multi-well plates.
To provide proof-of-concept, the Cayman lipid library containing ˜850 bioactive lipid-like compounds in the Vanderbilt High-throughput Screening Facility was screened, using […] of each compound across three independent screens. All screens were carried out using an automated microscope/high-content imaging system and robotic plate handler at RT. […] Compounds were initially scored based on their capacity to alter the percentage of phase separated vesicles (FIG. 2A). […]

[2] = test system: human peripheral myelin protein 22 (PMP22); assay: HTS of FDA-approved drug library for compounds that alter phase partitioning of PMP22 in GPMVs
From the text: By way of example and not limitation, in some embodiments PMP22 containing a MYC epitope sequence was employed in the GPMVs (hereafter referred to as “PMP22”, such as by expressing a MYC-Tagged PMP22 in Hela cells, followed by formation of PMP22 containing GPMVs, followed by addition of a commercial fluorescently labeled anti-MYC antibody to confer fluorescence to PMP22 in GPMVs, thereby making PMP22 detectable to enable its quantitation in the raft phase domains versus in the non-raft phase domains. See Marinko et al. (2020) Proc Natl Acad Sci USA 117(25):14168-14177.
The assay was scaled up to carry out high throughput screens (HTS). The strategy for these screens is similar to those outlined for our approach to finding compounds that shift the raft vs. non-raft phase domain distribution in GPMVs, except that in this case we were interested in discovering compounds that either shift PMP22 out of rafts or enhance its partitioning into the ordered raft phase domain. This pilot HTS screen involved the 1184 compound library of FDA-approved drugs at a concentration of 10 micromolar each and was carried out in the Vanderbilt HTS Core. We predicted that select compounds might sometimes change not only the phase partitioning of PMP22, but also change the actual amounts of ordered (raft) versus disordered phase domains that are present. We also wondered whether PMP22 and certain compounds might act synergistically (through any one of several possible mechanisms) to alter membrane phase behavior. This could potentially cause the compounds to have different effects on the ratio of raft versus disordered domains in the absence relative to the presence of the PMP22 protein. To test these possibilities, we compared the results of our screen to the results of preliminary screens carried out on the same compounds in GPMVs lacking expressed PMP22. This allowed us to directly evaluate the effects of the compounds under both conditions. […]

Compound | Effect on % phase separated vesicles [1] | shift of PMP22 phase preference in favor of the ordered (raft) phase ([2]; 10 micromolar, control value 78%, reproducible at 1 micromolar) | hit class in PMP22 screen ([2]; 1184 compound library of FDA-approved drugs, 10 micromolar) | effect on relative ordered (raft) vs. disordered phase proportions ([2]; in the absence or presence of PMP22)
CC1(COc2ccc(CC3SC(=O)NC3=O)cc2)CCCCC1 (stereo not shown) [Ciglitazone] | ↓ |  |  | 
Cc1ccc(-c2cc(C(F)(F)F)nn2-c2ccc(S(N)(=O)=O)cc2)cc1 [Celecoxib] |  | ~10% | Class I | without significantly perturbing

— US20240085429A1, “ALTERING PROTEIN FUNCTION BY PHARMACOLOGICAL TARGETING OF MEMBRANE DOMAINS” (University of Virginia Patent Foundation, priority 2021, published 2024)
